Laboratory results reported in article PMC10246235.
Results are given in words; binding and its absence hold for the method and conditions named. Binding seen in cells or lysates may run through a third protein. These calls come from enrichment with a bait or labelling near it, and not all partners need be listed. Sequences can lack the tags named with a protein.

Columns and labels:
[1] = molecular target: T1, MeeF-FLAG (Bacillus subtilis) (UniProt O34447); experiment: affinity purification with mass spectrometry; C-terminally FLAG-tagged bait captured on anti-FLAG M2 magnetic beads from B. subtilis lysate (overnight LB culture with 50 uM Mn; lysozyme, sonication, DNase, 1% Triton X-100), 30 °C 3 h, three PBS washes; eluted by heating at 95 °C for 10 min; LC-MS/MS, at least 2 peptides
T1 sequence: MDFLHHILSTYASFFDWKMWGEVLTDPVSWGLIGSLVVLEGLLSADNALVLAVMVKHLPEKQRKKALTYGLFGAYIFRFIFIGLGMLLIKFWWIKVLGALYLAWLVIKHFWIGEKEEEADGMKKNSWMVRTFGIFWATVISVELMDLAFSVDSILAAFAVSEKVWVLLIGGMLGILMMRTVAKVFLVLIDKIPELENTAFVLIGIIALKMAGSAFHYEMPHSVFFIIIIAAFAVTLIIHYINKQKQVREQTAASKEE

[2] = molecular target: T2, MeeY-FLAG (Bacillus subtilis) (UniProt O34997); experiment: as above
T2 sequence: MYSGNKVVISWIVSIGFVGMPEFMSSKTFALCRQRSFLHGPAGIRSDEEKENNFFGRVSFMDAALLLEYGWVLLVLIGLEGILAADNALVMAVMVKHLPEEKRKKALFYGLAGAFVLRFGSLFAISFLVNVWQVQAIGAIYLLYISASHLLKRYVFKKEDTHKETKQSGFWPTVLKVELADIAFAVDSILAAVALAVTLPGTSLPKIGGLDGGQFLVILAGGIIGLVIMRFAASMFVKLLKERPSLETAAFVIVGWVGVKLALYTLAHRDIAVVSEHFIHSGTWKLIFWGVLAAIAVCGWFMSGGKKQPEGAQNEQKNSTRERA

[3] = molecular target: T2, MeeY-FLAG (Bacillus subtilis); experiment: affinity purification with mass spectrometry; C-terminally FLAG-tagged bait captured on anti-FLAG M2 magnetic beads from B. subtilis lysate (overnight LB culture with 50 uM Mn; lysozyme, sonication, DNase, 1% Triton X-100), 30 °C 3 h, three PBS washes; eluted with glycine (pH 3) for 30 min at room temperature; LC-MS/MS, at least 2 peptides

Row | Substance | binding [1] | binding [2] | binding [3]
1 | AtpA (from UniProt P37808 1-502) | binds | binds | binds
2 | AtpD (from UniProt P37809 1-473) | – | – | binds
3 | FtsH (from UniProt P37476 1-637) | binds | binds | –
4 | MalA (from UniProt P54716 1-449) | binds | – | –

Results, then the substance that gave them:

Row | binding [1] | binding [2] | binding [3] | Substance
5 | binds | binds | – | AtpG (from UniProt P37810 1-287)
6 | binds | – | – | FrlO
7 | binds | – | – | SsdC
